{"source": "paper PMC6923382", "about": "“Small molecules that inhibit TNF signalling by stabilising an asymmetric form of the trimer” (Nature Communications, 2019)", "test": "Blood exposure of UCB-9260 in the mouse models", "type": "in vivo", "settings": "150mg/kg; CAIA model; individual mice", "note": "Several values for one entry are separate records, joined by “and”; a condition that tells them apart may be missing. Equal entries are not always repeated. Further values from the same series stand in other lists."}
{"smiles": "Cc1ccc(C)c(Cn2c(C(O)c3ccncc3)nc3ccc(-c4cnn(C)c4)cc32)c1", "note": "(stereo not shown) [UCB-9260]", "values": [{"measurement": "Free UCB-9260, 1 hour", "result": "320.5 nM and 69.4 nM and 438.7 nM"}, {"measurement": "Free UCB-9260, 6 hour", "result": "827.4 nM and 105.3 nM and 29.5 nM"}, {"measurement": "Total UCB-9260, 1 hour", "result": "2.8906 µM and 18.2799 µM"}, {"measurement": "Total UCB-9260, 6 hour", "result": "4388.6 nM and 1229.9 nM"}]}
